Measurements reported in PMC9126983, “Structural insights into the mechanism of archaellar rotational switching” (Nature Communications, 2022).
No constants are given. Whether binding was seen depends on the method and setting. A result given as binding can be weak or reduced; the word gives no strength.

Biological target: GST-MmCheFCTD (Methanococcus maripaludis)
Assay: ITC; as a4, in the absence of NaF and BeF2; both purified

binding: binds weakly
B1: Methanococcus maripaludis CheY (without BeF3-) (protein, UniProt Q6LYQ5 1-123)
chain: MASIVKTMIVDDSAFMRNILKRILSTTNKYVVIGEAANGADAIKMAEELQPDLISMDIVMPETDGITATKAIKEKTPEIKIVMCTSVDQEQKMIDAVNAGADGYIVKPFQAPKILEQFNKLFP
